Drawing on PMC9656839, this text covers binding for two substances.

Amino acid sequences for entries named in this document (tags omitted). A change or cut given only in a name is not applied to a line headed by its entry.
UniProt P63101: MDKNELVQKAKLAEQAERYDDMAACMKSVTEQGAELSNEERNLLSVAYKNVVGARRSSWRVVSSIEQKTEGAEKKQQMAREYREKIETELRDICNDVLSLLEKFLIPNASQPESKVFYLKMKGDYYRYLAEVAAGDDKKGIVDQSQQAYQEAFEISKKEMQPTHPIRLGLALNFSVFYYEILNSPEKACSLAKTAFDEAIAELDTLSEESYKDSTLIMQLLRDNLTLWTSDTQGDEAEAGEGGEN
UniProt P09405: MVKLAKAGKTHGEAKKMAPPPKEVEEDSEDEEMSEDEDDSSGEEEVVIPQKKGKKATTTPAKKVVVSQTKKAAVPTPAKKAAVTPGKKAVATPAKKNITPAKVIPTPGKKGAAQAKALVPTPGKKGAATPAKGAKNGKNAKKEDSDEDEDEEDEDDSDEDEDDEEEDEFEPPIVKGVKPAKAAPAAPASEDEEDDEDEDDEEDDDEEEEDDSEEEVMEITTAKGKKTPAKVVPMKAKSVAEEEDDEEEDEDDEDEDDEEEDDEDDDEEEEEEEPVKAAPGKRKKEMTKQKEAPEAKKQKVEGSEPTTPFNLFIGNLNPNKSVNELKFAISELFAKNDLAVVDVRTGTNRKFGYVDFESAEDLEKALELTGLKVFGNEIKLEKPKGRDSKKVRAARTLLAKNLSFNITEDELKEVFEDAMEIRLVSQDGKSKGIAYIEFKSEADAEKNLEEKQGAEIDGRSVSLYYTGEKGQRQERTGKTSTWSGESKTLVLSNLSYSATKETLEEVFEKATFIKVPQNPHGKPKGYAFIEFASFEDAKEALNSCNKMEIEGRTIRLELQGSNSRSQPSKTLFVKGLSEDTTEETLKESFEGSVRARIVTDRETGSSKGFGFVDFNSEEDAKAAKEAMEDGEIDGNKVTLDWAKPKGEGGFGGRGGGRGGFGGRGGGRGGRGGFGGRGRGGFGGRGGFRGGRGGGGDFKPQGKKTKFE

Results are given in words; binding and its absence hold for the method and conditions named. In cells and extracts the contact can be indirect. These calls come from enrichment with a bait or labelling near it, and not all partners need be listed.

The test deals with T1, recombinant human PGAM2 (wild type) (human) (UniProt P15259).
T1 sequence: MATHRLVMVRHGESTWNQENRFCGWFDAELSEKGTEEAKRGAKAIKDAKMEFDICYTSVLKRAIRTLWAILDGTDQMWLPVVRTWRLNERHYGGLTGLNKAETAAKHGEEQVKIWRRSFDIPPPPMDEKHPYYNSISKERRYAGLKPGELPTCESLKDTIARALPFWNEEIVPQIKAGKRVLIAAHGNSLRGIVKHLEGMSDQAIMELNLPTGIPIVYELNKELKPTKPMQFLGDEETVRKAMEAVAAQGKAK
Briefly: affinity purification with mass spectrometry; recombinant human PGAM2 immobilised on CNBr-activated Sepharose; RNAse-treated nucleolar protein extract of KLN-205 cells run through three times; wash 20 mM TRIS-HCl pH 7.4, 150 mM NaCl; elution with 2 M NaCl; LC-MS/MS, MASCOT score > 90; only the target purified.

For the substance 14-3-3ζ/δ (from UniProt P63101 1-245), the binding entry was “binds”. The same measure for nucleolin (from UniProt P09405 1-707): “binds”.
